{
  "source": "patent US4835185A",
  "about": "“Immunomodulator for improving commercial performance of domestic animals” (Iowa State University Research Foundation, Inc., priority 1987, dated 1989)",
  "key": {"cortisol in plasma": {"system": "cortisol in plasma", "experiment": "Lamb trials: plasma cortisol", "type": "in vivo, lambs (sheep)", "source_text": "The lambs used in Trial 1 consisted of medium-frame crossbred wethers and ewes weighing 26 to 31 kg. The lambs used in Trial 2 consisted of medium-framced crossbred rams weighing 18 to 25 kg. Each animal was raised as a single. The lambs were housed in a temperature controlled room in individual pens with nipple waterers. When received, the lamps were vaccinated for enterotoxemia. They were allowed to adjust to the pens and the environment for 10 days. One day before the trial began, the lambs were sheared and placed on their respective dietary treatments. The lamps were allotted blocking by weight and sex into two dietary treatment groups. Growth and feed consumption were measured bi-weekly. […] At slaughter, the lamb's internal organs and wool were weighed and sampled, loin eye area and back fat measured, and carcasses separated into fat, lean, and bone.\nThe SMB (soybean meal-containing) and the CGM (corn-gluten-containing) diets (compositions given in Table A) were fed twice per day in quantities ensuring that feed was before the lambs at all times. The diets were calculated to be equivalent to each other with respect to metabolizable protein, ether extract, fiber, and minerals with the exception of calcium and phosphorus. […] The CGM diet was calculated to contain slightly more energy (TDN 81.7 vs. 79.0, NEm 1.88 v. 1.86, Neg. 1.23 vs. 1.22). […]"}, "[1]": {"experiment": "Dairy Cattle Trial: nitrogen balance, milk production and composition", "type": "in vivo, Holstein and Brown Swiss cows (cattle)", "source_text": "Eight Holstein and four Brown Swiss cows were assigned randomly (blocking for lactation number and breed) to either a control or treatment group. Four of the Holsteins and two of the Brown Swiss were in their first lactation and all cows were between 134-283 days into lactation (mid-lactation). Cows were milked twice daily (2:30 a.m. and 2:00 p.m.).\nCows were fed ad libitum a total mixed ration twice daily (7:30 a.m. and 5:30 p.m.) with feed refusals collected before the morning feeding. The diet consisted of 31% chopped alfalfa hay, 18% corn silage, and […] (as a % of the dry matter). The grain mix was calculated to contain 1.55 Mcal NE/kg dry matter and 16% crude protein. A major portion of the grain protein was from expeller processed soybean meal with higher than usual bypass characteristics. The cows were consuming protein in excess of their normal requirements. […]\nDuring the first two weeks of the experiment (control period; designated weeks -2 and -1), all cows received the same diet. […] Throughout the experiment, daily milk yield, milk composition, and feed consumption was measured for each cow. […] Results of production and nitrogen balance studies were analyzed statistically using each cow as her own control. The trial effect was measured by subtracting the average control period value from the value during the treatment period. […]"}, "lymphocytes [2]": {"system": "lymphocytes", "experiment": "Study of Immune Function: lymphocyte blastogenesis, sheep (experiments 1 and 2)", "type": "cell-based, lambs (sheep)"}, "lymphocytes [3]": {"system": "lymphocytes", "experiment": "Study of Immune Function: lymphocyte blastogenesis, cattle (experiment 3)", "type": "cell-based, castrated male cattle"}, "neutrophils": {"system": "neutrophils", "experiment": "Neutrophil function (experiments 1 to 3)", "type": "cell-based, sheep and cattle", "settings": "any experiment", "method": "A study was conducted to determine if KIC administration can alter white blood cell function, specifically T lymphocyte function, in growing sheep and cattle. Eighteen medium-framed crossbred male lambs were used in experiment 1. Lambs were randomly assigned to either a control diet (n=10) or a diet supplemented with 1% KIC (n=8). Animals were fed ad libitum in individual cages. At 100 and 108 days of treatment, 50-ml blood samples were collected for lymphocyte and neutrophil function tests. In experiment 2, 19 intact crossbred male lambs were randomly assigned to either a saline treatment group (n=9) or a KIC treatment group (n=10). Control lambs were injected with 50 ml of a saline solution, and KIC treated lambs were injected with 50 ml of a 5% solution of KIC (sodium salt) daily (~2.5 g KIC/day). All injections were made intraperitoneally in the right posterior abdominal region after disinfection of the area. At day 60 and day 66 of treatment, blood was collected for lymphocyte and neutrophil function tests. In experiment 3 72 castrated male cattle were allotted to 12 pens of 6 animals each. […] Animals were fed ad libitum the respective diets for 6 weeks. At the end of the 6-233k periods, 100-ml blood samples were collected from each animal, and lymphocyte and neutrophil function were evaluated. Blood was collected by jugular venapuncture into acid-citrate-dextrose anticoagulant. Lymphocytes and neutrophils were isolated, and lymphocyte blastogenesis and neutrophil function evaluated. KIC was obtained from SOBAC, Paris, France. Zein was purchased from Freeman Industries, Tuckahoe, NY. Each experiment was statistically analyzed by analysis of variance. In sheep experiments, individual animals were the experimental units, whereas pen means were analyzed in the cattle experiment."}, "T lymphocytes": {"system": "T lymphocytes", "experiment": "General findings: immune function and plasma cortisol on KIC administration", "type": "in vivo, domestic animals", "settings": "general statement"}},
  "note": "For at least one compound, name, drawing or mass did not settle the structure.",
  "data": [
    {"smiles": "CC(C)CC(=O)C(=O)O", "note": "[KIC, alpha-ketoisocaproate]", "values": [
      {"measurement": "Cortisol", "setting": "cortisol in plasma; Trial 1, all KIC supplemented diets", "result": "significantly lower"},
      {"measurement": "Cortisol", "setting": "cortisol in plasma; Trial 2, KIC supplemented sheep", "result": "significantly lower"},
      {"measurement": "feed intake and body weight", "setting": "[1]; cows fed KIC", "result": "not affected"},
      {"measurement": "cholesterol in milk", "setting": "[1]; vs milk from controls", "result": "tended to contain less cholesterol"},
      {"measurement": "pokeweed mitogen (PWM) activity", "setting": "lymphocytes [2]; sheep fed KIC diets", "result": "not sheep"},
      {"measurement": "ConA stimulation", "setting": "lymphocytes [2]; sheep, either experiment", "result": "No ConA stimulation occurred"},
      {"measurement": "average background blastogenesis", "setting": "lymphocytes [2]; sheep, experiments 1 and 2 (\"all three experiments\")", "result": "increased"},
      {"measurement": "pokeweed mitogen (PWM) activity", "setting": "lymphocytes [3]; cattle fed KIC diets", "result": "enhanced"},
      {"measurement": "Concanavalin A (ConA) stimulation of blastogenesis", "setting": "lymphocytes [3]; cattle, experiment 3", "result": "increased"},
      {"measurement": "average background blastogenesis", "setting": "lymphocytes [3]; cattle, experiment 3 (\"all three experiments\")", "result": "increased"},
      {"measurement": "neutrophil random migration", "setting": "neutrophils", "result": "did not alter"},
      {"measurement": "Staphylococcus aureus ingestion", "setting": "neutrophils; neutrophils", "result": "did not alter"},
      {"measurement": "cytochrome C reduction", "setting": "neutrophils; neutrophils", "result": "did not alter"},
      {"measurement": "iodination", "setting": "neutrophils; neutrophils", "result": "did not alter"},
      {"measurement": "blastogenesis of the T lymphocytes", "setting": "T lymphocytes", "result": "enhanced blastogenesis"},
      {"measurement": "plasma cortisol", "setting": "T lymphocytes", "result": "marked reduction"}
    ]}
  ]
}
